{
  "source": "patent US4499082A",
  "about": "“α-Aminoboronic acid peptides” (E. I. Du Pont de Nemours and Company, priority 1983, dated 1985)",
  "biological_target": "T1, neutrophil elastase (Homo sapiens, UniProt P08246)",
  "T1 sequence (P08246 30-267)": "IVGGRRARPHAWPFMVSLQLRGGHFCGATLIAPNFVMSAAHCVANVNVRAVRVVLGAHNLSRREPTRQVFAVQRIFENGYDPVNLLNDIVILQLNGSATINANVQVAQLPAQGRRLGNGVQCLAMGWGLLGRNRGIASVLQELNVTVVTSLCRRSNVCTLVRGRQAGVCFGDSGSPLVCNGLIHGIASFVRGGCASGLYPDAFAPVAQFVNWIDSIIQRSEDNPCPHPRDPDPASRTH",
  "assay": "Inhibition of neutrophil elastase, additional peptide inhibitors preincubated in phosphate buffer (Table 3)",
  "assay_type": "biochemical",
  "design": "Neutrophil elastase was prepared by the procedure described by Baugh. et al; from tissue; key: No significant time dependence was observed at the level of inhibitor tested",
  "method": "Additional peptide inhibitors were evaluated by a procedure similar to that described above. Stock solutions of inhibitors (1.00 mM) were prepared in dimethylsulfoxide and compounds were diluted to 0.10 mM with […], pH 7.5, yielding the free boronic acid. After incubation for one hour at about 23°, inhibitors were added to assay solutions (2.00 mL) consisting of […] MeOSuc-Ala-AlaProVal-p-nitroanilide in 0.10M Hepes buffer, pH 7.5, containing 0.50M NaCl. Assays were initiated by addition of 0.50 μg neutrophil elastase. Control assays without inhibitor indicated an initial velocity of 0.0195 min^-1. The value \"k\" in Table 3, below, is an estimate of the first order rate constant for time-dependent inhibition, as described above for MeOSuc-AlaAlaPro-Boroval-OH (Table 1).",
  "note": "At least one compound was matched to its structure with a doubt left.",
  "data": [
    {"smiles": "CC(C)C(NC(=O)C(CCC(=O)O)NC(=O)CNC(=O)C(N)Cc1ccccc1)B(O)O", "note": "(stereo not drawn) [H--Phe--Gly--Glu--Boroval--OH]", "values": [
      {"measurement": "k, first order rate constant for time-dependent inhibition", "setting": "Conc. 2.0 × 10^-6 M", "result": "a"}
    ]},
    {"smiles": "CC(C)C(NC(=O)C(CO)NC(=O)CNC(=O)C(N)Cc1ccccc1)B(O)O", "note": "(stereo not drawn) [H--Phe--Gly--Ser--Boroval--OH]", "values": [
      {"measurement": "k, first order rate constant for time-dependent inhibition", "setting": "Conc. 1.0 × 10^-6 M", "result": "a"}
    ]},
    {"smiles": "CC(NC(=O)C1CCCN1C(=O)C(Cc1ccccc1)NC(=O)OCc1ccccc1)C(=O)NC(B(O)O)C(C)C", "note": "(stereo not drawn) [Z--Phe--Pro--Ala--Boroval--OH]", "values": [
      {"measurement": "k, first order rate constant for time-dependent inhibition", "setting": "Conc. 4.0 × 10^-6 M", "result": "a"}
    ]}
  ]
}
